Experiment [1] deals with T1, Myc-tagged PPM1α, expressed in HEK293 / HEK293T cells (human (cDNA of HepG2 cells)) (UniProt P35813).
T1 sequence: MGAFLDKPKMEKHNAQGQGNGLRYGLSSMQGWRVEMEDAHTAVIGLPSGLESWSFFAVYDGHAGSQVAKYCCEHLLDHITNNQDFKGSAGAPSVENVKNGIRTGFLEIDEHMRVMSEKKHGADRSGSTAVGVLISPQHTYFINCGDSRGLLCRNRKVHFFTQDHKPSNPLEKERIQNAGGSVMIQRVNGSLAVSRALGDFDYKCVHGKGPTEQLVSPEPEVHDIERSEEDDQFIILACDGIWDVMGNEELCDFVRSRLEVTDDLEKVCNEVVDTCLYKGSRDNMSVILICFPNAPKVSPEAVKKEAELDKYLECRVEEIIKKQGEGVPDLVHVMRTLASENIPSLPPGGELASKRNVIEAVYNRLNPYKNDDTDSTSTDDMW
The experiment can be described thus: co-IP; transfected HEK293 / HEK293T cells, 36 h after transfection; RIPA lysate, antibody overnight at 4 °C, protein A/G agarose 3 h, washed with PBS, immunoblot. (In general: Immunoblotting shows a protein as a band on a membrane.)

By UniProt entry, the sequences of proteins in these tests, tags left out.
UniProt Q9UNE7: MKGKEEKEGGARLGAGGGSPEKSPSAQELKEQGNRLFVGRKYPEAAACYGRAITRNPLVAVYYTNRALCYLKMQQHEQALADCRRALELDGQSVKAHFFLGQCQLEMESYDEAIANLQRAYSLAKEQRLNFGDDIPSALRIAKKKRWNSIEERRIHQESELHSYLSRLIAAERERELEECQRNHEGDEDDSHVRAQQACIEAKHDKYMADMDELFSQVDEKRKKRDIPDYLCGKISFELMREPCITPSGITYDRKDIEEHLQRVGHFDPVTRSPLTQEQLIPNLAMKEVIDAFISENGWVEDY
UniProt P27361: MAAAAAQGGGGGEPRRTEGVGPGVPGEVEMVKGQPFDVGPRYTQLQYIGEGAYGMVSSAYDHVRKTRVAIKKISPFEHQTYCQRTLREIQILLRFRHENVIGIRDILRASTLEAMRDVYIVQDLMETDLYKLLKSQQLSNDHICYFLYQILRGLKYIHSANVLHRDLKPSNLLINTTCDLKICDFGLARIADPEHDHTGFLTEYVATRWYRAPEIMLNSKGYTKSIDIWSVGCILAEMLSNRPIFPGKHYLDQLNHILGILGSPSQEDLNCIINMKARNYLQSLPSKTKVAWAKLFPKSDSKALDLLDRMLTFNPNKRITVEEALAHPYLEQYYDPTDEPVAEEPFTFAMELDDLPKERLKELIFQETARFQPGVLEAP

The target in experiment [2] is HA-tagged STUB1, expressed in HepG2 cells (human (cDNA of HepG2 cells)) (UniProt Q9UNE7). The experiment can be described thus: co-IP; transfected HepG2 cells, 36 h after transfection; RIPA lysate, antibody (anti-Flag or anti-HA) overnight at 4 °C, protein A/G agarose 3 h, washed with PBS, immunoblot.
Experiment [3] concerns the target T1, Myc-tagged PPM1α, expressed in HEK293 / HEK293T cells (human (cDNA of HepG2 cells)). As to the kind of experiment: co-IP; transfected HEK293 / HEK293T cells, 36 h after transfection; RIPA lysate, antibody overnight at 4 °C, protein A/G agarose 3 h, washed with PBS, immunoblot. This is another data set of the same source.
In experiment [4] the target is T2, Flag-tagged PAQR9 (progesterone and adiponectin receptor 9), expressed in HepG2 cells (UniProt Q6ZVX9).
T2 sequence: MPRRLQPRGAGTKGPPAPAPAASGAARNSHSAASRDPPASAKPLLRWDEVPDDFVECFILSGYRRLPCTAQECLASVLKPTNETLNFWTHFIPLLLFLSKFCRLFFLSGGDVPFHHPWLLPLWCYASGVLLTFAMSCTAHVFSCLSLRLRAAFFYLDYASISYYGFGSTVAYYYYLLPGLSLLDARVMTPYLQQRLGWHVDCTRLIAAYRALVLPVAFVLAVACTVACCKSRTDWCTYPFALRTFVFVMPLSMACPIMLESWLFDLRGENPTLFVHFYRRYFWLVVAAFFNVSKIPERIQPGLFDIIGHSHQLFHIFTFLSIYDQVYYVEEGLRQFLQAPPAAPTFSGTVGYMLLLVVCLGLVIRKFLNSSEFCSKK
As to the kind of experiment: co-IP; transfected HepG2 cells, 36 h after transfection; RIPA lysate, antibody (anti-Flag or anti-HA) overnight at 4 °C, protein A/G agarose 3 h, washed with PBS, immunoblot.

The record followed here is paper PMC11425881.

Where two headings read alike, the source gives them in different places. These are yes or no findings as the source states them, for the method shown. Binding seen in cells or lysates may run through a third protein. Some entries that bind do so weakly or less than the wild type. Where a sequence is shown, tags or fusion partners need not be part of it.

As for “ERK1, endogenous in HEK293T cells (from UniProt P27361 1-379) (enzyme)”, the binding result in experiment [1] is “binds”.

B1: Flag-tagged PAQR9 (progesterone and adiponectin receptor 9), expressed in HepG2 cells (protein, UniProt Q6ZVX9 1-377)
chain: T2 sequence
As to B1, the binding result in experiment [2] is reported as “binds”.

B2: Flag-tagged PAQR9 (progesterone and adiponectin receptor 9), expressed in HEK293 cells (protein, UniProt Q6ZVX9 1-377)
chain: T2 sequence
Take B2: in experiment [3], the binding result is on record as “binds”.

B3: Myc-tagged PPM1α, expressed in HepG2 cells (enzyme, UniProt P35813 1-382)
chain: T1 sequence
In the case of B3, the binding result in experiment [2] is given as “binds”.

B4: endogenous PPM1α (protein phosphatase, Mg2+/Mn2+ dependent 1) of HepG2 cells (enzyme, UniProt P35813 1-382)
chain: T1 sequence
For B4, in experiment [4], the binding result is given as “binds”.
